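A panel of P. falciparum strains inside erythrocytes is exposed to compounds for three days, then a DNA-binding dye reports the amount of parasite DNA. Each compound was titrated across a series from about 0.000037 to 29 µM. The number is the fitted AC50, the concentration giving a half-maximal change in signal; a lower value means higher potency, whether the curve shows a decrease or an increase. Calls follow the curve class and fit quality: every row here is inconclusive, covering signal-raising curves and weak, poorly fitted, partial or highest-dose-only inhibition curves.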

Values are in µM. All entries here are filed as inconclusive. These entries are mostly ones the record files as inconclusive; other results of the assay are not listed here. Potencies fitted to partial, single-point or poorly fitting curves are rough.

Result for Cn1ccc2cc3c(cc21)CCN3C(=O)Nc1cccnc1 [CP237] was potency 14.13 µM (inhibitor, single point). Cn1ccc2cc3c(cc21)CCN3C(=O)Nc1cccnc1 [C2A] read potency 11.22 µM (inhibitor, single point). Result for Cn1ccc2cc3c(cc21)CCN3C(=O)Nc1cccnc1 [CP266] was potency 16.94 µM (inhibitor, single point). For Cn1ccc2cc3c(cc21)CCN3C(=O)Nc1cccnc1 [PAD] the result was potency 11.22 µM (inhibitor, single point). With Cn1ccc2cc3c(cc21)CCN3C(=O)Nc1cccnc1 [CP268] the assay gave potency 13.46 µM (inhibitor, single point).

Result for Cn1ccc2cc3c(cc21)CCN3C(=O)Nc1cccnc1 [TAB109] was potency 17.78 µM (inhibitor, single point). For Cn1ccc2cc3c(cc21)CCN3C(=O)Nc1cccnc1 [CP305] the result was potency 13.46 µM (inhibitor, single point). Cn1ccc2cc3c(cc21)CCN3C(=O)Nc1cccnc1 [CP256] gave potency 17.78 µM (inhibitor, single point). With Cn1ccc2cc3c(cc21)CCN3C(=O)Nc1cccnc1 [CP329] the assay gave potency 19.01 µM (inhibitor, single point). Result for Cn1ccc2cc3c(cc21)CCN3C(=O)Nc1cccnc1 [CP297] was potency 19.01 µM (inhibitor, single point).

Result for Cn1ccc2cc3c(cc21)CCN3C(=O)Nc1cccnc1 [CP286] was potency 17.78 µM (inhibitor, single point). Cn1ccc2cc3c(cc21)CCN3C(=O)Nc1cccnc1 [CP252] gave potency 11.22 µM (inhibitor, single point). With Cn1ccc2cc3c(cc21)CCN3C(=O)Nc1cccnc1 [PC15] the assay gave potency 17.78 µM (inhibitor, single point). Result for Cn1ccc2cc3c(cc21)CCN3C(=O)Nc1cccnc1 [SC27B] was potency 11.22 µM (inhibitor, single point). Cn1ccc2cc3c(cc21)CCN3C(=O)Nc1cccnc1 [CP203] gave potency 15.1 µM (inhibitor, single point).

Result for Cn1ccc2cc3c(cc21)CCN3C(=O)Nc1cccnc1 [CP315] was potency 19.01 µM (inhibitor, single point). For Cn1ccc2cc3c(cc21)CCN3C(=O)Nc1cccnc1 [CP194] the result was potency 19.01 µM (inhibitor, single point). With Cn1ccc2cc3c(cc21)CCN3C(=O)Nc1cccnc1 [CP217] the assay gave potency 15.85 µM (inhibitor, single point). For Cn1ccc2cc3c(cc21)CCN3C(=O)Nc1cccnc1 [TAB165] the result was potency 10 µM (inhibitor, single point). For Cn1ccc2cc3c(cc21)CCN3C(=O)Nc1cccnc1 [CP250] the result was potency 17.78 µM (inhibitor, single point).

For Cn1ccc2cc3c(cc21)CCN3C(=O)Nc1cccnc1 [CP269] the result was potency 19.01 µM (inhibitor, single point). Result for Cn1ccc2cc3c(cc21)CCN3C(=O)Nc1cccnc1 [ATS95] was potency 12.59 µM (inhibitor, single point). With Cn1ccc2cc3c(cc21)CCN3C(=O)Nc1cccnc1 [3D7] the assay gave potency 10 µM (inhibitor, single point). With Cn1ccc2cc3c(cc21)CCN3C(=O)Nc1cccnc1 [N140] the assay gave potency 12.59 µM (inhibitor, single point). For Cn1ccc2cc3c(cc21)CCN3C(=O)Nc1cccnc1 [P93_24] the result was potency 17.78 µM (inhibitor, single point).

For Cn1ccc2cc3c(cc21)CCN3C(=O)Nc1cccnc1 [W2] the result was potency 19.01 µM (inhibitor, single point). Cn1ccc2cc3c(cc21)CCN3C(=O)Nc1cccnc1 [P94_40] read potency 12.59 µM (inhibitor, single point). Cn1ccc2cc3c(cc21)CCN3C(=O)Nc1cccnc1 [DFO2036] read potency 12.59 µM (inhibitor, single point). Cn1ccc2cc3c(cc21)CCN3C(=O)Nc1cccnc1 [AA1029] read potency 11.22 µM (inhibitor, single point). Result for CCCc1nn(C)c2c(=O)[nH]c(-c3cc(S(=O)(=O)N4CCN(C)CC4)ccc3OCC)nc12 [CP291] was potency 13.46 µM (inhibitor, partial curve, poor fit).

For CCCc1nn(C)c2c(=O)[nH]c(-c3cc(S(=O)(=O)N4CCN(C)CC4)ccc3OCC)nc12 [CP237] the result was potency 17.78 µM (inhibitor, single point).

Once more, the final 3:

{"compound": "Cn1ccc2cc3c(cc21)CCN3C(=O)Nc1cccnc1", "condition": "AA1029", "potency (µM)": "11.22", "remark": "inhibitor, single point"}
{"compound": "CCCc1nn(C)c2c(=O)[nH]c(-c3cc(S(=O)(=O)N4CCN(C)CC4)ccc3OCC)nc12", "condition": "CP291", "potency (µM)": "13.46", "remark": "inhibitor, partial curve, poor fit"}
{"compound": "CCCc1nn(C)c2c(=O)[nH]c(-c3cc(S(=O)(=O)N4CCN(C)CC4)ccc3OCC)nc12", "condition": "CP237", "potency (µM)": "17.78", "remark": "inhibitor, single point"}

Data taken from PubChem BioAssay AID504749, deposited by NCATS (2011).